Results published in patent publication US10100097B2, “GIP-GLP-1 dual agonist compounds and methods” (Zealand Pharma A/S, priority 2012, dated 2018).
For some assays here: Not every detail of the peptide structures is certain; ends, links or a residue may be inferred. For some assays here: For at least one compound, name, drawing or mass did not settle the structure.

Assays:
human GIP R = molecular target: T1, human GIP R (Homo sapiens, UniProt P48546); assay: Human GIP receptor (GIP R) activity assay, cAMP induction (AlphaScreen cAMP kit); type: cell-based; details: HEK293 cells expressing the human GIP R, 15 min at 37° C., average values of multiple determinations
T1 construct: expressed in transfected cells
T1 sequence (P48546 22-466): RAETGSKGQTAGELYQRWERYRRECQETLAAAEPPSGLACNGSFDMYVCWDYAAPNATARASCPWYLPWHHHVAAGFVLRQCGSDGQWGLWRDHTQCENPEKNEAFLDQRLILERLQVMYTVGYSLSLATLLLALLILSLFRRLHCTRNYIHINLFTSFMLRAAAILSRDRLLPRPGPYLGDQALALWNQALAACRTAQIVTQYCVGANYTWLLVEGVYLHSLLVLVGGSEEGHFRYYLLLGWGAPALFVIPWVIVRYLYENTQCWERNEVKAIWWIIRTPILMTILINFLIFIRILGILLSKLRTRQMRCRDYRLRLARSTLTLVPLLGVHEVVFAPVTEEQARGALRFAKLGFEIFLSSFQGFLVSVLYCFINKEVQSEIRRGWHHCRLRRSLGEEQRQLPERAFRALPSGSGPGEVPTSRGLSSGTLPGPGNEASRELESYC
Procedure: Human GIP Receptor (GIP R) and GLP-1 Receptor (GLP-1 R) Activity Assay
In vitro effects of peptide conjugates of the invention were assessed by measuring the induction of cAMP following stimulation of the respective receptor by GIP, GLP1 or analogues of these, as outlined in the invention, using the AlphaSceen® cAMP kit from Perkin-Elmer according to instructions. Briefly. HEK293 cells expressing the human GIP R or GLP-1 R (stable cell lines generated through transfection of the cDNA for human GIP R or GLP-1 and selection of stable clones) were seeded at 30,000 cells/well in 96-well microtiter plates coated with 0.01% poly-L-lysine, and grown for 1 day in culture in 200 μl growth medium (DMEM, 10% FCS, Penicillin (100 IU/ml), Streptomycin (100 μg/ml)). On the day of analysis, growth medium was removed and the cells were washed once with […] Tyrode's buffer (Tyrode's Salts (9.6 g/1), 10 mM HEPES, pH 7.4). […] The Assay buffer was removed and cells are lysed in 80 μl Lysis buffer (0.1% w/v BSA, 5 mM HEPES, 0.3% v/v Tween-20) per well. […] The plates were mixed and incubated in the dark for an hour at room temperature before measuring using an Envision™ plate reader (Perkin-Elmer).

Male C57BL/6J mice = assay: IPGTT (Intraperitoneal Glucose Tolerance Test) in mice; type: in vivo; details: glucose 2 g/kg i.p., peptides s.c., all time points, p<0.05 vs. vehicle
Procedure: IPGTT (Intraperitoneal Glucose Tolerance Test) in Mice
Male C57BL/6J mice (Charles River, Germany) were maintained on normal chow (Altromin 1324, Brogaarden A/S, Gentofte, Denmark) and domestic quality water with added citric acid to pH˜3.6. The animals were housed pair-wise in a light-, temperature-, and humidity-controlled room (12:12 h light-dark cycle, with lights on at 06.00-18.00 hr; 20-22° C.; 50-80% relative humidity). Mice were fasted for 5 hr before the IPGTT. Peptides and vehicle were administered subcutaneously before the intraperitoneal injection of glucose (t=0 min; 2 g/kg; 5 ml/kg). Tail vein blood was sampled at time t=0 (before glucose administration), 15, 30, 45, 60, 90, and 120 min for measurements of blood glucose.

## CCCCCCCCCCCCCCCC(=O)N[C@@H](CCC(=O)NCCCC[C@H](NC(=O)[C@H](CCC(=O)O)NC(=O)[C@H](CC(=O)O)NC(=O)[C@H](CC(C)C)NC(=O)[C@H](Cc1ccc(O)cc1)NC(=O)[C@@H](NC(=O)[C@H](CO)NC(=O)[C@H](Cc1ccc(O)cc1)NC(=O)[C@H](CC(=O)O)NC(=O)[C@H](CO)NC(=O)[C@@H](NC(=O)[C@H](Cc1ccccc1)NC(=O)[C@@H](NC(=O)CNC(=O)[C@H](CCC(=O)O)NC(=O)C(C)(C)NC(=O)[C@@H](N)Cc1ccc(O)cc1)[C@@H](C)O)[C@@H](C)O)[C@@H](C)CC)C(=O)N[C@@H](C)C(=O)N[C@@H](C)C(=O)N[C@@H](Cc1c[nH]cn1)C(=O)N[C@@H](CC(=O)O)C(=O)N[C@@H](Cc1ccccc1)C(=O)N[C@H](C(=O)N[C@@H](CCC(=O)O)C(=O)N[C@@H](Cc1c[nH]c2ccccc12)C(=O)N[C@@H](CC(C)C)C(=O)N[C@@H](CC(C)C)C(=O)N[C@@H](CO)C(=O)N[C@@H](C)C(N)=O)C(C)C)C(=O)O [Compound 56]
Human GIP R
  EC50: 0.14 nM

## CCCCCCCCCCCCCCCC(=O)N[C@@H](CCC(=O)NCCCC[C@H](NC(=O)[C@H](C)NC(=O)[C@H](C)NC(=O)[C@H](CCC(N)=O)NC(=O)CNC(=O)[C@H](CCC(=O)O)NC(=O)[C@H](CC(C)C)NC(=O)[C@H](Cc1ccc(O)cc1)NC(=O)[C@H](CO)NC(=O)[C@H](CO)NC(=O)[C@@H](NC(=O)[C@H](CC(=O)O)NC(=O)[C@H](CO)NC(=O)[C@@H](NC(=O)[C@H](Cc1ccccc1)NC(=O)[C@@H](NC(=O)CNC(=O)[C@H](CCC(=O)O)NC(=O)[C@H](C)NC(=O)[C@@H](N)Cc1cnc[nH]1)[C@@H](C)O)[C@@H](C)O)C(C)C)C(=O)N[C@@H](CCC(=O)O)C(=O)N[C@@H](Cc1ccccc1)C(=O)N[C@H](C(=O)N[C@@H](C)C(=O)N[C@@H](Cc1c[nH]c2ccccc12)C(=O)N[C@@H](CC(C)C)C(=O)N[C@H](C(=O)N[C@@H](CCCNC(=N)N)C(=O)NCC(=O)N[C@@H](CCCNC(=N)N)C(=O)NCC(=O)O)C(C)C)[C@@H](C)CC)C(=O)O [liraglutide, reference compound]
Male C57BL/6J mice
  Effect on glucose tolerance as compared to vehicle: significantly improved glucose tolerance
